Data taken from US20230139700A1.
These are yes or no findings as the source states them, for the method shown. Some results given as binding are weak or reduced against the parent protein; the word gives no strength.

The chains behind the UniProt entries cited, without tags or fusion partners. Residues count along the entry.
UniProt P43489, residues 29-277: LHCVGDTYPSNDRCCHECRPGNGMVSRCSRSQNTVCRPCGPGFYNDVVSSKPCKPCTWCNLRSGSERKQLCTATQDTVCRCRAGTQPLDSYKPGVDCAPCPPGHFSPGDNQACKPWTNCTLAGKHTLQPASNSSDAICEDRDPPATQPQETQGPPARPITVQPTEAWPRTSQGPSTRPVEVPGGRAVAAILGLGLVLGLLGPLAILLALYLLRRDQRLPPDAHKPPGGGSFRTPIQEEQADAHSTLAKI

Biological target: human OX40 on cells (human) (UniProt P43489)
Test: flow cytometry on Jurkat-hOX40 cells, 100 nM antibody, secondary antibody; parental Jurkat as control

binding | Binder
binds | Antibody-X35-6L (antibody, human IgG1, kappa, V domains shown) VH: EVQLVESGGGLVQPGRSLRLSCAASGFTFDDYAMHWVRQAPGRGLEWVSGIGGSGGSTYYADSVKGRFTISRDNSKNTLYLQMNGLGAEDTAVYYCAKDRGYGDYYWYFDLWGRGTLVTVSS VL: SSELTQPASVSGSPGQSITISCTGTSSDVGGYNYVSWYQQHPGKAPKLMIYDVSNRPSGVSNRFSGSKSGNTASLTISGLQAEDEADYYCSSYTTSSTLVFGGGTKVTVLR
binds | Antibody-F15-1L (antibody, human IgG1, kappa, V domains shown) VH: QVQLRESGGGLVQPGGSLRLSCAASGFTFSSYAMNWVRQAPGKGLEWVSAISGSGGNTYYADSVKGRLTISRDNSKNTLYLQMNSLRAEDTAVYYCAKDPLGSSWFEYFQHWGQGTLVTVSS VL: QSALTQPASVSGSPGQSITISCTGTSSDVGGYNYVSWYQKHPGKAPKLMIYEVSNRPSGVSNRFSGSKSANTASLTISGLQAEDEADYFCSSYSSSSTLVVFGGGTKLTVLR
